Data taken from patent US20240092867A1.

Chains of the proteins cited; added tags and fusions are not shown. Lines headed by an entry give the natural chain unless they say otherwise; changes in a name come on top. Residues count along the entry.
UniProt Q9NRA1: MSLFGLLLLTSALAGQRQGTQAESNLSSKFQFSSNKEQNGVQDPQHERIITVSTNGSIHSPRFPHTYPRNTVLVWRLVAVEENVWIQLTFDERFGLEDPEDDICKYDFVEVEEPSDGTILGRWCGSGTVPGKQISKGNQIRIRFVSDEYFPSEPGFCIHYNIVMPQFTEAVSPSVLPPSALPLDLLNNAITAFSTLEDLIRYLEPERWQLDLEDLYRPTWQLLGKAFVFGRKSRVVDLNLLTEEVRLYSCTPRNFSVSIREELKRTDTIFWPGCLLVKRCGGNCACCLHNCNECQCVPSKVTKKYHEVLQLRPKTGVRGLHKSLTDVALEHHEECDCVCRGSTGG
UniProt P04275, residues 764-2813: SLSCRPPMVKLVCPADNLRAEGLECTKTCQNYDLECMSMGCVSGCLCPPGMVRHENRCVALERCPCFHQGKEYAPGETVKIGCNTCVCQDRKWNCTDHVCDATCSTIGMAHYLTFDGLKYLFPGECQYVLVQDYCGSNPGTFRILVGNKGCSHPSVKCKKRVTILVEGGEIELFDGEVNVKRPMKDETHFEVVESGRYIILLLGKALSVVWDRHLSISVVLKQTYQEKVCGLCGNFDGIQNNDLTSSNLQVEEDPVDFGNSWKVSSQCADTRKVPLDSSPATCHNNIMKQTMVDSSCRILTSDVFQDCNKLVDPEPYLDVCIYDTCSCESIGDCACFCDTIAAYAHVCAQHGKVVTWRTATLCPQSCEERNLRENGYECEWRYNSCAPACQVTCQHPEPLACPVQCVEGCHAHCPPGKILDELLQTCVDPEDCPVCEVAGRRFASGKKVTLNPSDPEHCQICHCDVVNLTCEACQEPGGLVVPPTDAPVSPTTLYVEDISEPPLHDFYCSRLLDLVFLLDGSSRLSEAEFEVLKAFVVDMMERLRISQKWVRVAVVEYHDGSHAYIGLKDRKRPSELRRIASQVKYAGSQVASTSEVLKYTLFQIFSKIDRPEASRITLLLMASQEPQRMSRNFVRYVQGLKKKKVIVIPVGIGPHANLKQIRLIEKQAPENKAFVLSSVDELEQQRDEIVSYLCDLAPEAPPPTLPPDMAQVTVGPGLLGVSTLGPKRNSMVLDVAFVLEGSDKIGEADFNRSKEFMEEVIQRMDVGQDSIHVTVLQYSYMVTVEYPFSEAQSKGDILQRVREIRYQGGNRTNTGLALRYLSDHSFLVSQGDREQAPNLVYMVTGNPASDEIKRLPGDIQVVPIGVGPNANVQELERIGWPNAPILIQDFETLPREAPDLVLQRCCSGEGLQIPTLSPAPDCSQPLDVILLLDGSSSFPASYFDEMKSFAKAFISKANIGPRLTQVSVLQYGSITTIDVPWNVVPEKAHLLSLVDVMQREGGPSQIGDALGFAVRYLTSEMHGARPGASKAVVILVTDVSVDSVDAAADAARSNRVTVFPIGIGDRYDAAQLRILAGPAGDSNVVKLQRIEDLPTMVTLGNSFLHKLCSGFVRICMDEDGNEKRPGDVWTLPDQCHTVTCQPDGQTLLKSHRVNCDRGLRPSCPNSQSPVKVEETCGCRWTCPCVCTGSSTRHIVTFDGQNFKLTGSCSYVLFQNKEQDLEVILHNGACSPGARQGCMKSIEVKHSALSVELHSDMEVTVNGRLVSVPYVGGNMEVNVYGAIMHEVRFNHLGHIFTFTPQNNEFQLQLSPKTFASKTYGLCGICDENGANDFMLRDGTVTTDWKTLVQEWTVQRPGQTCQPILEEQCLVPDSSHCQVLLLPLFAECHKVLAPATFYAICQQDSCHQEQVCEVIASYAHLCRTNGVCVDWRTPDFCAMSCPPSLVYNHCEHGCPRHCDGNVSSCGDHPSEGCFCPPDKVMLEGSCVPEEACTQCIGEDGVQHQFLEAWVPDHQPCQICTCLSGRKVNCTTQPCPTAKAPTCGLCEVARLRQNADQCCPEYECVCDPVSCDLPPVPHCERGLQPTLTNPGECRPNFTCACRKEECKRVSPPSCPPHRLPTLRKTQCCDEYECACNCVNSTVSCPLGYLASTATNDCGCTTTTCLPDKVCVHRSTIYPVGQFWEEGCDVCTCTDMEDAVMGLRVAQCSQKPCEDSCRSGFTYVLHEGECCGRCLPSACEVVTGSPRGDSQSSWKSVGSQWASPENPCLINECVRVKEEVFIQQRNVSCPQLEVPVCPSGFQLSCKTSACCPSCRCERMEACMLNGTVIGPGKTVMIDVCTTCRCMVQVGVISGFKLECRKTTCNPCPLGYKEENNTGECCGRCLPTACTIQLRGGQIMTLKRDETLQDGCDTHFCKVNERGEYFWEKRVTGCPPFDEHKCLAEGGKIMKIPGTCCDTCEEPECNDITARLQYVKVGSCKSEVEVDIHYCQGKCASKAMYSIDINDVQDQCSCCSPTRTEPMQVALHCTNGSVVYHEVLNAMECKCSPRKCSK
UniProt P24043: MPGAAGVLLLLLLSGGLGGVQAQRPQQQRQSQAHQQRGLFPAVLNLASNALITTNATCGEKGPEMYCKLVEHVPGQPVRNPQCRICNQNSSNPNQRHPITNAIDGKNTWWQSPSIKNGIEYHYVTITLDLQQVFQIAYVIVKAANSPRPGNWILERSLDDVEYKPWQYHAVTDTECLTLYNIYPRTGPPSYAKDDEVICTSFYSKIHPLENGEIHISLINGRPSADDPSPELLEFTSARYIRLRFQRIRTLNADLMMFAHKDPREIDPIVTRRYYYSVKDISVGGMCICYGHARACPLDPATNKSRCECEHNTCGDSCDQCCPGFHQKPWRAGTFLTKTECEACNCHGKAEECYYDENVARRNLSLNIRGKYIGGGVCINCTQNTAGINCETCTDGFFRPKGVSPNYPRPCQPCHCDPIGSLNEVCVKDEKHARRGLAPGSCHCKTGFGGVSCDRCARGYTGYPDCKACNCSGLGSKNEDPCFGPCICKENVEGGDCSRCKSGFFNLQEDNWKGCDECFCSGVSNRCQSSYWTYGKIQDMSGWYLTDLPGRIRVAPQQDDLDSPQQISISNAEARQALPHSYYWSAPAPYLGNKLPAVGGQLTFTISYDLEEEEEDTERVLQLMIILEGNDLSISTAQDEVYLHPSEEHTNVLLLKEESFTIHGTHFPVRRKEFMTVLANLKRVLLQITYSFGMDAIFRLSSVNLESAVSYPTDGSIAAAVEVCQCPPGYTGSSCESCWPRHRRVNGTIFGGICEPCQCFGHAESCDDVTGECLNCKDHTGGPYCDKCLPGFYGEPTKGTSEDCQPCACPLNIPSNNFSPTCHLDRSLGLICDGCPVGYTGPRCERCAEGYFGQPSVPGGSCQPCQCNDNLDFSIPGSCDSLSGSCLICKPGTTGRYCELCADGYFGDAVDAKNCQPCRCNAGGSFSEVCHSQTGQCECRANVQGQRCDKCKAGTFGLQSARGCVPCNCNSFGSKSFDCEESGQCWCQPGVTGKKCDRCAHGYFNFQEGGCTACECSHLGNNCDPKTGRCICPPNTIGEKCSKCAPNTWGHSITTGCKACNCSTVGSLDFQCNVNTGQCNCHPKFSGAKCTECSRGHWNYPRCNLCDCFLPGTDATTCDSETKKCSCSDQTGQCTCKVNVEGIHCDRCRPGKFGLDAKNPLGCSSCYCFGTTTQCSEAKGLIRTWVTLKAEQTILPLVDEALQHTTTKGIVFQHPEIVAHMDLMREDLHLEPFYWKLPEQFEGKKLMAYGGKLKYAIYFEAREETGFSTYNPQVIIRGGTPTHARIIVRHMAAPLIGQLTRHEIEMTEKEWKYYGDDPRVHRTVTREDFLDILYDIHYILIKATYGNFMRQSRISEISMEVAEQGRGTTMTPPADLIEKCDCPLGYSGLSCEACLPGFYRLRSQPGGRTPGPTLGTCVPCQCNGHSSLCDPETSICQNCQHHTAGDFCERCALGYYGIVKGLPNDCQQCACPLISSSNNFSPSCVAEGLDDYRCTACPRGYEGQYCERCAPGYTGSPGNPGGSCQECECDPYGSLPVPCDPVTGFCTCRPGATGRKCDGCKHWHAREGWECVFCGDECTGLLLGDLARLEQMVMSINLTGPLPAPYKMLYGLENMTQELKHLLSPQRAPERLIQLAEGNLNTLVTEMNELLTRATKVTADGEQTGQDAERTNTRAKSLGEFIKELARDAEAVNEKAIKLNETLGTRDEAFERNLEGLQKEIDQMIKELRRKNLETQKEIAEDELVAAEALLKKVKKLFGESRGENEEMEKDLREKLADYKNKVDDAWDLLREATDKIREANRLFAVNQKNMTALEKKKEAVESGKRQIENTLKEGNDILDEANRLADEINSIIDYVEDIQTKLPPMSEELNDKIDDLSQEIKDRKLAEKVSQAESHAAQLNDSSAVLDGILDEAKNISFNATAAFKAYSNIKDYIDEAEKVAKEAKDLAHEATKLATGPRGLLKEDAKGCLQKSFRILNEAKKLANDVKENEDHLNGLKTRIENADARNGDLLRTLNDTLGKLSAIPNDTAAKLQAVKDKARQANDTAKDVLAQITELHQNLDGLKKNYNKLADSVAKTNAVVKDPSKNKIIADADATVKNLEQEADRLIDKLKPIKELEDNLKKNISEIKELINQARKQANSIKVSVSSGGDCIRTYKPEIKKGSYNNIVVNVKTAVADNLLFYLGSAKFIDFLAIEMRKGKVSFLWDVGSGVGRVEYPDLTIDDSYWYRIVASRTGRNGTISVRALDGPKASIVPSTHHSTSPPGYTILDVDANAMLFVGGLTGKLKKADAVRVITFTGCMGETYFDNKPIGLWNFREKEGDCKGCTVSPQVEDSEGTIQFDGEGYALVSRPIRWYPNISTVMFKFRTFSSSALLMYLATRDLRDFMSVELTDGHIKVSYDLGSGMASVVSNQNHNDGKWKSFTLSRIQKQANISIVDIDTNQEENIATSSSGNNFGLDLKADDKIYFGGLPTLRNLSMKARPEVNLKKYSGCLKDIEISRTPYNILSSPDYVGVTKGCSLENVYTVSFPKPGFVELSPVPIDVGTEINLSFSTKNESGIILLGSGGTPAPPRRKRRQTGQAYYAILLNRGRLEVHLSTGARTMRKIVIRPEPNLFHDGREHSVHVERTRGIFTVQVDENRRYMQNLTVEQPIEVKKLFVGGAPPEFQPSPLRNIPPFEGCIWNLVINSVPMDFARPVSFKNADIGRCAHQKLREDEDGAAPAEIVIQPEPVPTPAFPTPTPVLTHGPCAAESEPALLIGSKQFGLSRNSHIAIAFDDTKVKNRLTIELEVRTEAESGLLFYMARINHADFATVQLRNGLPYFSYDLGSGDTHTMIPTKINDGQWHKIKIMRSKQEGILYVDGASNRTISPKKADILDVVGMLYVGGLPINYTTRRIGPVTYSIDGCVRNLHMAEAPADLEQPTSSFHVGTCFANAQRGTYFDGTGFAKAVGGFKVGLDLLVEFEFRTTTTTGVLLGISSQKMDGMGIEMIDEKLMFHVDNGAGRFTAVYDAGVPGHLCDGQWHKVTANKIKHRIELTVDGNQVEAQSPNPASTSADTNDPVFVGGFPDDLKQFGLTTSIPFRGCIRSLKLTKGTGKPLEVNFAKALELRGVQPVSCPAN

Molecular target: platelet-derived growth factor (PDGF)-CC (UniProt Q9NRA1)
Assay: ELISA, GF coated 50 nM, vWF 1 µg/mL

binding, binds:
human plasma-derived vWF (from UniProt P04275 764-2813)

Molecular target: platelet-derived growth factor (PDGF)-CC (UniProt Q9NRA1)
Assay: ELISA, GF coated, laminin 10 nM

binding, binds:
laminin-521 (from UniProt O15230 36-3695; P55268 33-1798; P11047 34-1609)
laminin-111 (from UniProt P25391 18-3075; P07942 22-1786; P11047 34-1609)
laminin-211 (from UniProt P24043 23-3122; P07942 22-1786; P11047 34-1609)
laminin-421 (from UniProt Q16363 25-1823; P55268 33-1798; P11047 34-1609)
laminin-332 (from UniProt Q16787 28-1724; Q13751 18-1172; Q13753 22-1193)
laminin-511 (from UniProt O15230 36-3695; P07942 22-1786; P11047 34-1609)
laminin-411 (from UniProt Q16363 25-1823; P07942 22-1786; P11047 34-1609)

Results are given in words; binding and its absence hold for the method and conditions named. A result given as binding can be weak or reduced; the word gives no strength.
